The text below walks through data of PubChem BioAssay AID248 (DTP/NCI, 2004).

The list is a part of this screen's results and no random one: it is rich in T/C values a quarter to a half above the control, in often repeated tests (any T/C) and in doses without a T/C. Further doses and runs are listed elsewhere. T/C gives the treated animals as a percentage of the vehicle group. Some entries give survivors of the animals treated and no T/C: the source files T/C as zero there, which appears to mark a toxic dose or a test without result, not a measured value. Some survivor counts are full or nearly so, which does not show that the dose was tolerated: the source hardly ever lists a survival T/C far under the control, and the zero likely stands for such cases as well. Survivors were counted at the toxicity check, usually on the fifth day, unless a day is given; later deaths do not show. Schedules are NCI's codes, taken here to give the interval after Q, in days (D) or hours (H), and the number of doses after X. Some schedule codes hold Z or #, which are not explained here. For survival time, this PubChem deposit counts one and a half times the control or more as active, and values a quarter to a half above the control carry no call in these data; other NCI protocols may use other cut-offs.

The experiment relates to L1210 leukemia ip in BDF1 mice, survival T/C. The experiment in a line: NCI In Vivo Anticancer Drug Screen. Data for tumor model L1210 Leukemia (intraperitoneal) in B6D2F1 (BDF1) mice. The conditions noted are these: T/C endpoint: mean survival time, higher T/C = longer survival.
The mark [1] stands for this setting: dose: 400.0 mg/kg/injection, schedule: Q04DX003 (ip), vehicle: saline with Tween-80.
The mark [2] stands for this setting: dose: 100.0 mg/kg/injection, schedule: Q04DX003 (ip), vehicle: saline.
Where [3] appears, read: dose: 200.0 mg/kg/injection, schedule: Q04DX003 (ip), vehicle: saline.
The mark [4] stands for this setting: dose: 400.0 mg/kg/injection, schedule: Q04DX003 (ip), vehicle: saline.
The mark [5] stands for this setting: dose: 100.0 mg/kg/injection, schedule: Q04DX003 (ip), vehicle: saline with Tween-80.
[6] abbreviates: dose: 200.0 mg/kg/injection, schedule: Q04DX003 (ip), vehicle: saline with Tween-80.

As to `N#C[C@@H]1C2C=CC(CC2)[C@H]1C#N`, the survivor count by setting is: (dose: 2.4 mg/kg/injection, schedule: Q03HX024 (ip), vehicle: gum acacia) 8 of 10; (dose: 3.6 mg/kg/injection, schedule: Q03HX024 (ip), vehicle: gum acacia) 1 of 10; (dose: 5.4 mg/kg/injection, schedule: Q01DX009 (ip), vehicle: gum acacia) 0 of 10; (dose: 5.4 mg/kg/injection, schedule: Q03HX024 (ip), vehicle: gum acacia) 0 of 10; (dose: 8.0 mg/kg/injection, schedule: Q01DX009 (ip), vehicle: gum acacia) 0 of 10; (dose: 8.0 mg/kg/injection, schedule: Q03HX024 (ip), vehicle: gum acacia) 0 of 10. Also, the survivor count runs as follows: (dose: 12.0 mg/kg/injection, schedule: Q01DX009 (ip), vehicle: gum acacia) 0 of 10; (dose: 12.0 mg/kg/injection, schedule: Q03HX024 (ip), vehicle: gum acacia) 0 of 10; (dose: 16.0 mg/kg/injection, schedule: Q01DX001 (ip), vehicle: gum acacia) 1 of 10; (dose: 16.0 mg/kg/injection, schedule: Q04DX003 (ip), vehicle: gum acacia) 0 of 10; (dose: 24.0 mg/kg/injection, schedule: Q01DX001 (ip), vehicle: gum acacia) 0 of 10; (dose: 24.0 mg/kg/injection, schedule: Q04DX003 (ip), vehicle: gum acacia) 0 of 10. For the same molecule, the survivor count is reported as 0 of 10 (dose: 36.0 mg/kg/injection, schedule: Q01DX001 (ip), vehicle: gum acacia); 0 of 10 (dose: 36.0 mg/kg/injection, schedule: Q04DX003 (ip), vehicle: gum acacia); 0 of 10 (dose: 54.0 mg/kg/injection, schedule: Q01DX001 (ip), vehicle: gum acacia); 0 of 10 (dose: 54.0 mg/kg/injection, schedule: Q04DX003 (ip), vehicle: gum acacia); 0 of 10 (dose: 80.0 mg/kg/injection, schedule: Q01DX001 (ip), vehicle: gum acacia); 0 of 10 (dose: 80.0 mg/kg/injection, schedule: Q04DX003 (ip), vehicle: gum acacia). In addition, the survivor count is 0 of 10 (dose: 120.0 mg/kg/injection, schedule: Q01DX001 (ip), vehicle: gum acacia) and 0 of 10 (dose: 120.0 mg/kg/injection, schedule: Q04DX003 (ip), vehicle: gum acacia).

As to `c1ccc2nc(NN=C3CCCCC3)ccc2c1`, the survivor count (dose: 75.0 mg/kg/injection, schedule: Q01DX001 (ip), vehicle: saline) is 2 of 6; the survivor count (dose: 150.0 mg/kg/injection, schedule: Q01DX001 (ip), vehicle: saline) is 0 of 6; the survivor count (dose: 300.0 mg/kg/injection, schedule: Q01DX001 (ip), vehicle: saline) was 0 of 6.

As for `CC12CC1(C)C(=O)OC2=O` (stereo unspecified), the survivor count under setting [1] is 3 of 6.

Turning to `Oc1ccccc1C=NCCN1CC1.Oc1ccccc1C=NCCN1CC1.[Cu]`, the survivor count is recorded as 0 of 6 (dose: 100.0 mg/kg/injection, schedule: Q01DX001 (ip), vehicle: Klucel (hydroxypropylcellulose) (HPC)); 0 of 6 (dose: 200.0 mg/kg/injection, schedule: Q01DX001 (ip), vehicle: Klucel (hydroxypropylcellulose) (HPC)); 0 of 6 (dose: 400.0 mg/kg/injection, schedule: Q01DX001 (ip), vehicle: Klucel (hydroxypropylcellulose) (HPC)).

Regarding `C[N+](C)(C)C1CC1`, the survivor count (dose: 100.0 mg/kg/injection, schedule: Q01DX009 (ip), vehicle: saline) is listed as 0 of 6; the survivor count under setting [2] is recorded as 3 of 6; the survivor count (dose: 200.0 mg/kg/injection, schedule: Q01DX009 (ip), vehicle: saline) is 0 of 6; the survivor count under setting [3] is 0 of 6; the survivor count under setting [4] is on record as 0 of 6.

On to `CN(C)CCCCNc1ccc(NCCCCN(C)C)c2c1C(=O)c1c(O)ccc(O)c1C2=O`, for which the survivor count (dose: 400.0 mg/kg/injection, schedule: Q04DX002 (ip), vehicle: saline) is listed as 2 of 3.

For `ClCC1CNC(c2ccccc2)O1` (stereo unspecified), the survivor count is, setting by setting: under setting [5], 0 of 6; under setting [6], 0 of 6; under setting [1], 0 of 6.

Consider `CCOCC(C#N)C#N`, for which the survivor count was 0 of 6 (dose: 25.0 mg/kg/injection, schedule: Q01DX009 (ip), vehicle: saline); 0 of 6 under setting [2]; 0 of 6 under setting [3]; 0 of 6 under setting [4].

For `NC(=O)c1c(F)c(F)c(Oc2c(F)c(F)c(Oc3c(F)c(F)c(C(N)=O)c(F)c3F)c(F)c2F)c(F)c1F`, the survivor count is, setting by setting: under setting [5], 6 of 6; under setting [6], 6 of 6; under setting [1], 6 of 6.

As for `CCSCCCCO`, the survivor count (dose: 300.0 mg/kg/injection, schedule: Q01DX009 (ip), vehicle: saline) is recorded as 1 of 6.

As for `CCOC(=O)c1[nH]c2ccccc2c1CN(CCCl)CCCl`, the T/C (dose: 40.0 mg/kg/injection, schedule: Q01DX Z (ip), vehicle: other) was 138 % of control. Also, the survivor count (dose: 80.0 mg/kg/injection, schedule: Q01DX Z (ip), vehicle: other) was 0 of 6.

As for `O=CNNc1ccccc1`, for the setting “dose: 400.0 mg/kg/injection, schedule: Q04DX003 (ip), vehicle: Klucel (hydroxypropylcellulose) (HPC)”, the survivor count is 4 of 6.

For `CCCCOC(=N)N(CCCC)CC(C)(C)[N+](=O)[O-]`, under “dose: 66.0 mg/kg/injection, schedule: Q01DX Z (ip), vehicle: methylcellulose (MC)”, the survivor count is recorded as 2 of 6.

As for `O=[N+]([O-])c1ccc(\C=C/C=C/C=C/C2(CCl)OCCO2)cc1`, the survivor count (dose: 400.0 mg/kg/injection, schedule: Q01DX001 (ip), vehicle: saline with Tween-80) is recorded as 3 of 3.

Consider `Cc1cccc(CN2CCN(C(c3ccccc3)c3ccc(Cl)cc3)CC2)c1` (stereo unspecified), for which the survivor count (dose: 400.0 mg/kg/injection, schedule: Q01DX009 (ip), vehicle: Klucel (hydroxypropylcellulose) (HPC)) is on record as 0 of 6.

In the case of `COc1ccc([P+](=S)SS[P+](=S)c2ccc(OC)cc2)cc1` (stereo unspecified), where the note is “dose: 400.0 mg/kg/injection, schedule: Q04DX002 (ip), vehicle: saline with Tween-80”, the survivor count was 1 of 3.

As for `CCC[CH2][Sn]1([CH2]CCC)[O]OC2([O]1)C1CC3CC(C1)CC2C3` (stereo unspecified), the survivor count (dose: 25.0 mg/kg/injection, schedule: Q04DX002 (ip), vehicle: Klucel (hydroxypropylcellulose) (HPC)) is 3 of 3; the survivor count (dose: 50.0 mg/kg/injection, schedule: Q04DX002 (ip), vehicle: Klucel (hydroxypropylcellulose) (HPC)) is 3 of 3; the survivor count (dose: 100.0 mg/kg/injection, schedule: Q04DX002 (ip), vehicle: Klucel (hydroxypropylcellulose) (HPC)) is 0 of 3; the survivor count (dose: 200.0 mg/kg/injection, schedule: Q04DX002 (ip), vehicle: Klucel (hydroxypropylcellulose) (HPC)) is 0 of 3; the survivor count (dose: 400.0 mg/kg/injection, schedule: Q04DX002 (ip), vehicle: Klucel (hydroxypropylcellulose) (HPC)) is on record as 0 of 3.

Turning to `CCCCCC(/C=N/NC(=O)c1cccc2ccccc12)=C\c1ccccc1`, the survivor count (dose: 200.0 mg/kg/injection, schedule: Q01DX001 (ip), vehicle: saline) was 3 of 4.

Turning to `Cc1ccc(N=C=S)cc1F`, the survivor count reads like this: (dose: 150.0 mg/kg/injection, schedule: Q01DX001 (ip), vehicle: other) 2 of 6; (dose: 300.0 mg/kg/injection, schedule: Q01DX001 (ip), vehicle: other) 0 of 6.

On to `CC(=O)Nc1ncnc(NC(C)=O)c1N=O`, for which, under “dose: 400.0 mg/kg/injection, schedule: Q01DX001 (ip), vehicle: saline”, the survivor count is recorded as 0 of 3.

Consider `Cc1ccc(C)c(NC(=O)Nc2ccc(Nc3ccccc3)cc2)c1`, for which, under “dose: 200.0 mg/kg/injection, schedule: Q01DX009 (ip), vehicle: Klucel (hydroxypropylcellulose) (HPC)”, the survivor count is 6 of 6.
